Article PMC6367351 (Nature Communications, 2019)
For part of these data: A weaker result is weaker than the reference pair of the same experiment. Protein sequences can lack the tags named with them. For part of these data: Construct, isoform or probe ends are uncertain for at least one entry.

What was measured:
[1] = target: T1, MinElp3 (Methanocaldococcus infernus) (UniProt D5VRB9); test: MST; conditions: replicates 322, 539, 293 nM; recombinant protein; residues 1-534; protein details: GST tag cleaved (TEV); label: Cy5-CTP (internal); probe letters rebuilt from the primers and the genome
T1 sequence (looked up): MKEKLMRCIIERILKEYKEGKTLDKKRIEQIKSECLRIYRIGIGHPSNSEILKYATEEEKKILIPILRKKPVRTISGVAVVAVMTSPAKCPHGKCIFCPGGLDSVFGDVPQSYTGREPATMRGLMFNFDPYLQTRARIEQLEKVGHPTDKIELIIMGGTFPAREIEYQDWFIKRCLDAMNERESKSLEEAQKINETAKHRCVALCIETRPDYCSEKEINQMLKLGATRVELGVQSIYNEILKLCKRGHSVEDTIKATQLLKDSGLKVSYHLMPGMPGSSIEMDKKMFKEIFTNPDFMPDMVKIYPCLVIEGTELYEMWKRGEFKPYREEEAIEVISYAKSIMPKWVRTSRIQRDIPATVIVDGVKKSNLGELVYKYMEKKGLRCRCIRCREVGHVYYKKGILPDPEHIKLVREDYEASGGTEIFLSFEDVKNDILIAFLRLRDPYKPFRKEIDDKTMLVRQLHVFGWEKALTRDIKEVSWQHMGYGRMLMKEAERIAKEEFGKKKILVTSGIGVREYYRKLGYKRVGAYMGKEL

[2] = target: T1, MinElp3 (Methanocaldococcus infernus); test: EMSA; conditions: EMSA: 25 C 30 min, 6% native PAGE at 4 C; tRNA stored in 20 mM HEPES pH 7.5, 150 mM NaCl, 5 mM DTT, 1 mM MgCl2; recombinant protein; residues 1-534; protein details: GST tag cleaved (TEV); label: Cy5
[3] = target: T2, MinElp3Δ1-46 del1-46 (Methanocaldococcus infernus) (UniProt D5VRB9); test: EMSA; conditions: EMSA: 25 C 30 min, 6% native PAGE at 4 C; tRNA stored in 20 mM HEPES pH 7.5, 150 mM NaCl, 5 mM DTT, 1 mM MgCl2; recombinant protein; residues 47-534; protein details: GST tag cleaved (TEV); label: Cy5
T2 sequence (looked up): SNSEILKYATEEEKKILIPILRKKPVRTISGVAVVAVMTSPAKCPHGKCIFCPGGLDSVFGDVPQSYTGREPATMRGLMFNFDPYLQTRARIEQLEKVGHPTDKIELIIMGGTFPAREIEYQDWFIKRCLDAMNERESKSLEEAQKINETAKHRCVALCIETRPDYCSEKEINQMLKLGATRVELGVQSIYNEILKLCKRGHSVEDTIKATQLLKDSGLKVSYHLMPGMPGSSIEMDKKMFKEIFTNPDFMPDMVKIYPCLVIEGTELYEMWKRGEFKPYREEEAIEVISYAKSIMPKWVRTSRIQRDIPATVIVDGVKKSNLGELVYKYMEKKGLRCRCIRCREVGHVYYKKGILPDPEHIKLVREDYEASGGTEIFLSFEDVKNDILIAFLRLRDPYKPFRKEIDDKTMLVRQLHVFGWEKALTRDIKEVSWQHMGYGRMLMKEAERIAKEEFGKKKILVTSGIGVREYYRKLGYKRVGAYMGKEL

GGCACUAUGGCCGAGUGGUUAAGGCGACAGACUUGAAAUCUGUUGGGCUCUGCCCGCGCUGGUUCAAAUCCUGCUGGUGUCGGCGUCUUCCCAUGGGUGUAUUCGGUCG [(Sc)tRNASerUGA]
Kd [1]: 0.37 µM

UUUUUUUUU [polyU]
binding result [2]: binds more weakly

GACAGACUUGAAAUCUGUU [ASL yeast tRNASerUGA]
binding result [3]: binds more weakly
